About 6,000 (1.7%) of roughly 350,000 compounds were called active. The inconclusive results got no clear call from the source; some entries with a clear call stand among them for comparison. Cut-off read from the data, not from the text of the source: active = CPE inhibition above about 20% (passing the limit was not always enough); inconclusive = no clear call, values can overlap the other calls; tested in BHK-21 cells. Some compounds were tested as several samples or in several runs, with calls that do not always agree.
assay: protection of cells from dengue 2 killing – plate reader, single concentration, primary screen (AID 651640); details: DENV2-infected cells, cytopathic effect rescue, at 9.99 µM, stronger effect = higher value;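 note: 0% = median of neutral control wells and 100% = median of positive control wells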

| SMILES | CPE inhibition |
| --- | --- |
| Cc1noc(C)c1NC(=O)N(C)C[C@@H]1Oc2ccc(NS(=O)(=O)c3ccc(F)cc3)cc2CC(=O)N([C@@H](C)CO)C[C@H]1C | inconclusive: 47% |
| CC=Cc1ccc2n(c1=O)C[C@H]1[C@H](CO)[C@@H](C(=O)N(C)C)N(CCC)[C@@H]21 (mixture of isomers) | inactive: -0.614% |
| CCC(=O)N1[C@H](CO)[C@@H](c2ccc(-c3cccc(F)c3)cc2)[C@@H]1CN(C)C(C)=O | active: 34.4% |
| COc1ccccc1C=NNC(=O)NN=Cc1ccccc1OC | inactive: 4.35% |
| CCCCN(Cc1ccccc1)C1CCN(Cc2ccccc2)CC1 | inconclusive: 46.2% |
| CC(C(O)c1cc(=O)c(OCc2ccccc2)co1)[N+](=O)[O-] (centres undefined) | inconclusive: 29.3% |
| Cc1cnc(NC(=O)CCCNC(=O)c2ccc(Cl)cc2)s1 | inconclusive: 25% |
| CCN1C(=O)[C@H]2[C@@H](c3ccc(-c4ccc(Cl)c(Cl)c4)cc3)N[C@@](CC(C)C)(C(=O)OC)[C@H]2C1=O | inconclusive: 46.7% |
| Cc1ccc(C)c(NC(=O)NNC(=O)c2cc3ccccc3cc2O)c1 | inconclusive: 21% |
| O=C(c1cccc(-c2cccc3nccn23)c1)N1CCOCC1 | active: 33.1% |
| CCCCN(C(=O)CSc1cc(C)c2ccccc2n1)c1c(N)n(Cc2ccccc2)c(=O)[nH]c1=O | inconclusive: 20.2% |
| O=C(NNC(=O)c1cccs1)c1ccco1 | inconclusive: 37.3% |
| Cc1ccc(S(=O)(=O)N2CC[C@@H]3[C@H]2c2cc(C#Cc4ccc(F)cc4)ccc2N[C@@H]3CO)cc1 | active: 29% |
| COc1ccc(/C=C2\SC(=O)N(CC(=O)Nc3ccccc3O)C2=O)cc1OC | inactive: -3.68% |
| CO[C@H]1CN(C)C(=O)c2cc(NC(=O)C3CC3)ccc2OC[C@H](C)N(C(C)=O)C[C@H]1C | inactive: -1.56% |
| Clc1ccc2nc(-c3cccc(Br)c3)c(Cc3ccsc3)n2c1 | inconclusive: 24.6% |
| COc1ccc(C(=O)C2CCCN(S(=O)(=O)C(C)C)C2)c(C)c1 (centres undefined) | inactive: -4.55% |
| O=C(C[C@@H]1CC[C@H]2[C@@H](COC[C@H](O)CN2Cc2nccs2)O1)NCc1ccc(Cl)cc1 | inconclusive: 45.2% |
| Cc1noc(C)c1NC(=O)N(C)C[C@@H]1Oc2ccc(NC(=O)c3ccncc3)cc2CC(=O)N([C@@H](C)CO)C[C@@H]1C | inconclusive: 33% |
| COCCNC(=O)[C@H]1[C@H](CO)[C@H]2Cn3c(ccc(-c4ccccc4OC)c3=O)[C@H]2N1C(=O)C1CCC1 | inconclusive: 21.6% |
| N#Cc1cccc(-c2ccc(C3[C@H]4CNC[C@@H]3N4C(=O)Nc3cccc(F)c3)cc2)c1 (some centres undefined) | inactive: 0.613% |
| COC(=O)c1ccc(C(=O)Nc2cc(Cl)ccc2Cl)cc1NC(=O)c1ccc(N(C)C)cc1 | inconclusive: 28.9% |
| COc1cc(/C=C2/C(=O)NN(c3ccc(F)cc3)C2=O)cc(Cl)c1O | inactive: -2.91% |

| SMILES | CPE inhibition |
| --- | --- |
| COCC#Cc1ccc2c(c1)O[C@@H](CN(C)C(=O)CC1CC1)[C@H](C)CN([C@H](C)CO)S2(=O)=O | inconclusive: 20.8% |
| Cc1ccc(C(=O)N2CCN(C)CC2)cc1[N+](=O)[O-] | inconclusive: 35.9% |
| C[C@@H]1CCCCO[C@@H](CN(C)C(=O)Nc2ccccc2)[C@H](C)CN([C@H](C)CO)C(=O)c2cc(NS(C)(=O)=O)ccc2O1 | inconclusive: 21.4% |
| CN(C(=O)CSc1nc2ccccc2c(=O)n1-c1ccc(F)cc1F)C1CCS(=O)(=O)C1 (centres undefined) | inconclusive: 22% |
| O=C(NCC[C@@H]1CC[C@@H](NC(=O)C2CCCCC2)[C@@H](CO)O1)c1cc(Cl)cc(Cl)c1 | inconclusive: 26.1% |
| Cc1noc(C)c1S(=O)(=O)Nc1cccc2c1O[C@H](CN(C)S(=O)(=O)c1ccccc1)[C@H](C)CN([C@H](C)CO)C2=O | active: 54.3% |
| COc1ccc(CN(C)C[C@H]2OCCCC[C@@H](C)Oc3ccc(NS(=O)(=O)c4ccc(Cl)cc4)cc3C(=O)N([C@@H](C)CO)C[C@@H]2C)cc1 | inconclusive: 36.5% |
| O=C(N[C@@H]1CC[C@@H](CCn2cc(C3(O)CCCC3)nn2)O[C@H]1CO)C1CCCC1 | active: 20.6% |
| COc1ccc(NC(=O)Nc2ccc3c(c2)C(=O)N([C@H](C)CO)C[C@@H](C)[C@@H](CN(C)C(=O)CCCN(C)C)OCCCC[C@@H](C)O3)cc1 | inactive: -1.27% |
| C/C=C/c1ccc([C@H]2[C@@H](CNC(=O)c3ccccc3)N(C(C)=O)[C@H]2CO)cc1 | inconclusive: 58.5% |
| C[C@H]1CN([C@@H](C)CO)C(=O)c2cc(NC(=O)Nc3ccc(F)cc3)ccc2O[C@H]1CN(C)S(=O)(=O)c1ccc(Cl)cc1 | inactive: 2.97% |
| Cc1ccccc1-c1cnc2c(c1)C(=O)N([C@@H](C)CO)C[C@H](C)[C@H](CN(C)C(=O)CN(C)C)O2 | inactive: -0.522% |
| O=C(NCc1ccccc1)C1=C[C@@H](c2ccc3c(c2)OCO3)C[C@@H](OCc2ccc(CO)cc2)O1 | active: 21.8% |
| C[C@@H]1CN([C@H](C)CO)C(=O)Cc2cc(NS(=O)(=O)c3cn(C)cn3)ccc2O[C@@H]1CN(C)CC1CCCCC1 | active: 34.3% |
| COCC(=O)N1C[C@H]2[C@@H](c3ccccc31)[C@@H](CO)N2Cc1ccccc1Cl | inconclusive: 24.2% |
| CCOc1ccc(S(=O)(=O)N2CCN(C(=O)CCC(=O)N3CCOCC3)CC2)cc1 | inconclusive: 24.3% |
| O=C(O)c1ccccc1SCC(=O)N1CCOCC1 | inactive: -0.2% |
| CN(C)CC(=O)N[C@@H]1C=C[C@H](CC(=O)O)O[C@H]1CO | inconclusive: 26.2% |
| COc1ccccc1CN1C[C@@H]2N[C@H](C1)C2c1ccc(-c2cccc(C#N)c2)cc1 (some centres undefined) | inconclusive: 27% |
| C(=N\NCc1ccccc1)/c1ccc2nccnc2c1 | inconclusive: 54.5% |
| COc1ccc(-c2nnn(CC(=O)N(CCCO)C(C(=O)NC3CCCC3)c3ccncc3)n2)cc1 (centres undefined) | inactive: 6.59% |
| C[C@@H]1CN([C@@H](C)CO)C(=O)c2cccc(NC(=O)c3ccncc3)c2O[C@@H]1CN(C)S(=O)(=O)c1ccc(F)cc1 | inactive: 19.1% |
| c1ccc(COc2ncnc3c2ncn3CCCNCc2cccs2)cc1 | inconclusive: 54.4% |

Random excerpt: 2 records from the list

| SMILES | CPE inhibition |
| --- | --- |
| C[C@@H]1CN([C@@H](C)CO)C(=O)c2cccc(NC(=O)c3ccncc3)c2O[C@@H]1CN(C)S(=O)(=O)c1ccc(F)cc1 | inactive: 19.1% |
| COc1ccc(CN(C)C[C@H]2OCCCC[C@@H](C)Oc3ccc(NS(=O)(=O)c4ccc(Cl)cc4)cc3C(=O)N([C@@H](C)CO)C[C@@H]2C)cc1 | inconclusive: 36.5% |

Later entries.

| SMILES | CPE inhibition |
| --- | --- |
| COc1ccc(CNS(=O)(=O)c2ccc(-n3cnnn3)c(C)c2)cc1 | inconclusive: 24% |
| O=C(c1ccccc1)c1ccc(C(=O)N2CCN(c3ccccc3O)CC2)cc1 | inconclusive: 25.4% |
| Cc1noc(C)c1NC(=O)N(C)C[C@H]1OCCCC[C@@H](C)Oc2ccc(NS(=O)(=O)c3ccccc3)cc2C(=O)N([C@H](C)CO)C[C@H]1C | active: 69.9% |
| CC(C)[C@@H](N)C(=O)NC[C@H]1O[C@@H](n2cnc3c(=O)[nH]c(N)nc32)[C@H](O)[C@@H]1O | inconclusive: 34.5% |
| Cc1ccc2c(c1)CO[C@@]21O[C@H](CCO)C[C@H](O)[C@H]1O | inactive: 14% |
| COc1ccccc1CN(C)C(=O)c1cccc(S(=O)(=O)N2CCN(Cc3ccccc3)CC2)c1 | inconclusive: 24.8% |
| COc1ccc2c3c([nH]c2c1)[C@@H](CO)NCC31CCN(C(=O)C2CCCC2)CC1 | active: 77.8% |
| C[C@H](CO)N1C[C@H](C)[C@H](CN(C)C(=O)C2CC2)OCc2ccccc2-c2c(n(C)c3ccccc23)C1=O | inactive: -1.17% |
| C[C@@H]1CCCCO[C@H](CN(C)C(=O)Nc2ccc(F)cc2)[C@@H](C)CN([C@H](C)CO)C(=O)c2cc(NS(=O)(=O)c3cccs3)ccc2O1 | active: 22.4% |
| COc1ccc(S(=O)(=O)Nc2ccc3c(c2)C(=O)N([C@H](C)CO)C[C@@H](C)[C@@H](CN(C)Cc2ccc(Cl)c(Cl)c2)OCCCC[C@H](C)O3)cc1 | inactive: -18.3% |
| COC(=O)c1ccc(C)cc1 | inconclusive: 70.4% |
| O=C(Nc1nc(-c2ccc(Cl)cc2Cl)cs1)C1CCCO1 (centres undefined) | inconclusive: 27.2% |
| COc1ccc(N2C(=O)c3[nH]nc(-c4ccccc4)c3C2c2ccc(Br)cc2)cc1 (centres undefined) | inconclusive: 63.7% |
| NNC(=O)CN1C(=O)Nc2ccc(Cl)cc2C1c1ccccc1 (centres undefined) | inconclusive: 26.6% |
| CN1C(=O)c2cc(NC(=O)C3CCCC3)ccc2OC[C@H]2O[C@H](CC(=O)NCCc3ccncc3)CC[C@@H]21 | active: 28.6% |
| C[C@H](CO)N1C[C@H](C)[C@@H](CN(C)S(=O)(=O)c2ccc(F)cc2)Oc2ccc(NC(=O)Cn3cnnn3)cc2CC1=O | inconclusive: 26% |
| COc1ccc(NC(=O)N(C)C[C@@H]2Oc3ccc(NS(=O)(=O)c4c(C)noc4C)cc3C(=O)N([C@H](C)CO)C[C@@H]2C)cc1 | active: 89.7% |
| C[C@@H]1CN([C@@H](C)CO)C(=O)c2cc(NC(=O)Nc3ccccc3)ccc2O[C@@H](C)CCCCO[C@@H]1CN(C)C(=O)CCC(F)(F)F | inactive: -0.333% |
| COc1ccc(S(=O)(=O)N2CCCOC2CNC(=O)C(=O)NCCc2ccco2)cc1C (centres undefined) | inconclusive: 39.4% |
| O=C(Nc1ccc(C(=O)N2CCN(c3ccncc3)CC2)cc1)c1ccc(Br)o1 | active: 23.2% |
| CN1C(=O)c2cc(NC(=O)Cc3cccs3)ccc2OC[C@@H]2O[C@H](CC(=O)NCC3CCCCC3)CC[C@H]21 | active: 132% |
| Cn1cc(S(=O)(=O)CC(=O)Nc2ccc3c(c2)OCCO3)c2ccccc21 | inconclusive: 28.7% |
| CC(C)CC#Cc1ccc2c(c1)O[C@H](CN(C)Cc1cccc(F)c1)[C@@H](C)CN([C@@H](C)CO)S2(=O)=O | inactive: 8.2% |
